T/C and survivor count data for eight compounds are collected here from PubChem BioAssay AID248 (DTP/NCI, 2004).

The test system of this experiment is L1210 leukemia ip in BDF1 mice, survival T/C. Kind of experiment: NCI In Vivo Anticancer Drug Screen. Data for tumor model L1210 Leukemia (intraperitoneal) in B6D2F1 (BDF1) mice. The settings on record: T/C endpoint: mean survival time, higher T/C = longer survival.
Setting [1] is: dose: 9.0 mg/kg/injection, schedule: Q01DX Z (ip), vehicle: methylcellulose (MC).
Setting [2] is: dose: 67.5 mg/kg/injection, schedule: Q01DX Z (ip), vehicle: methylcellulose (MC).
Setting [3] is: dose: 100.0 mg/kg/injection, schedule: Q01DX009 (ip), vehicle: Klucel (hydroxypropylcellulose) (HPC).
Setting [4] is: dose: 200.0 mg/kg/injection, schedule: Q01DX009 (ip), vehicle: Klucel (hydroxypropylcellulose) (HPC).
Setting [5] is: dose: 400.0 mg/kg/injection, schedule: Q01DX009 (ip), vehicle: Klucel (hydroxypropylcellulose) (HPC).
[6] abbreviates: dose: 100.0 mg/kg/injection, schedule: Q04DX003 (ip), vehicle: saline with Tween-80.
Setting [7] is: dose: 200.0 mg/kg/injection, schedule: Q04DX003 (ip), vehicle: saline with Tween-80.
The mark [8] stands for this setting: dose: 400.0 mg/kg/injection, schedule: Q04DX003 (ip), vehicle: saline with Tween-80.
Setting [9] is: dose: 20.0 mg/kg/injection, schedule: Q01DX Z (ip), vehicle: saline.
Setting [10] is: dose: 100.0 mg/kg/injection, schedule: Q01DX009 (ip), vehicle: saline with Tween-80.

The list does not hold the whole screen: it gathers some chemical classes. Not every dose and run of a compound is shown. T/C gives the treated animals as a percentage of the vehicle group. Some entries give survivors of the animals treated and no T/C: the source files T/C as zero there, which appears to mark a toxic dose or a test without result, not a measured value. Some survivor counts are full or nearly so, which does not show that the dose was tolerated: the source hardly ever lists a survival T/C far under the control, and the zero likely stands for such cases as well. Survivors were counted at the toxicity check, usually on the fifth day, unless a day is given; later deaths do not show. Schedules are NCI's codes, read here as Q, the interval in days (D) or hours (H), X, the number of doses. Some schedule codes hold Z or #, which are not explained here. For survival time, this PubChem deposit counts one and a half times the control or more as active, and values a quarter to a half above the control carry no call in these data; other NCI protocols may use other cut-offs. Some entries were tested several times; the results are listed from low to high. Some T/C values are marked as having no survivor count here; that says nothing about deaths at the dose. Some T/C values carry the count of animals alive at the toxicity check (mostly the fifth day); where neither a count nor a note follows, no animal had died by that day.

In the case of `NC(CC(=O)O)c1cccc(N(CCCl)CCCl)c1` (centres undefined), the T/C reads like this: (dose: 4.0 mg/kg/injection, schedule: Q01DX Z (ip), vehicle: carboxymethylcellulose (CMC)) 114 % of control; (dose: 6.0 mg/kg/injection, schedule: Q01DX Z (ip), vehicle: carboxymethylcellulose (CMC)) 124 % of control; (dose: 9.0 mg/kg/injection, schedule: Q01DX Z (ip), vehicle: carboxymethylcellulose (CMC)) 134 % of control; under setting [1], 212 % of control; (dose: 13.0 mg/kg/injection, schedule: Q01DX Z (ip), vehicle: methylcellulose (MC)) 202 % of control; (dose: 20.0 mg/kg/injection, schedule: Q01DX Z (ip), vehicle: methylcellulose (MC)) 169, 176, 226 % of control. The T/C reads like this: (dose: 30.0 mg/kg/injection, schedule: Q01DX Z (ip), vehicle: methylcellulose (MC)) 147, 152, 161 % of control; (dose: 45.0 mg/kg/injection, schedule: Q01DX Z (ip), vehicle: methylcellulose (MC)) 132 and 139 % of control; under setting [2], 88 % of control [5 of 6 alive]. Under setting [2], the survivor count is 6 of 6.

Regarding `ClCCN(CCCl)/N=C/C=N/N(CCCl)CCCl`, the T/C was 93 % of control (dose: 15.0 mg/kg/injection, schedule: Q01DX Z (ip), vehicle: carboxymethylcellulose (CMC)); 98 % of control (dose: 30.0 mg/kg/injection, schedule: Q01DX Z (ip), vehicle: carboxymethylcellulose (CMC)); 115 % of control (dose: 60.0 mg/kg/injection, schedule: Q01DX Z (ip), vehicle: carboxymethylcellulose (CMC)); 120 % of control (dose: 120.0 mg/kg/injection, schedule: Q01DX Z (ip), vehicle: carboxymethylcellulose (CMC)).

As to `COC(=O)CCc1ccc(N(CCCl)CCCl)cc1`, the T/C by setting is: (dose: 25.0 mg/kg/injection, schedule: Q01DX009 (ip), vehicle: Klucel (hydroxypropylcellulose) (HPC)) 108 % of control; (dose: 50.0 mg/kg/injection, schedule: Q01DX009 (ip), vehicle: Klucel (hydroxypropylcellulose) (HPC)) 109 % of control [5 of 6 alive]; (dose: 100.0 mg/kg/injection, schedule: Q04DX003 (ip), vehicle: Klucel (hydroxypropylcellulose) (HPC)) 106 % of control; (dose: 200.0 mg/kg/injection, schedule: Q04DX003 (ip), vehicle: Klucel (hydroxypropylcellulose) (HPC)) 120 % of control; (dose: 400.0 mg/kg/injection, schedule: Q04DX003 (ip), vehicle: Klucel (hydroxypropylcellulose) (HPC)) 112 % of control [5 of 6 alive]. Besides, the survivor count under setting [3] was 0 of 6, the survivor count under setting [4] was 4 of 6 and the survivor count under setting [5] is 0 of 6.

On to `C[Si](C)(C)CCCNCCCl`, for which the T/C (dose: 100.0 mg/kg/injection, schedule: Q01DX001 (ip), vehicle: carboxymethylcellulose (CMC)) was 104 % of control. Besides, the survivor count (dose: 200.0 mg/kg/injection, schedule: Q01DX001 (ip), vehicle: carboxymethylcellulose (CMC)) is given as 1 of 4 and the survivor count (dose: 400.0 mg/kg/injection, schedule: Q01DX001 (ip), vehicle: carboxymethylcellulose (CMC)) is 0 of 4.

`COc1cc([N+](=O)[O-])c(-c2c([N+](=O)[O-])cc(OC)cc2[N+](=O)[O-])c([N+](=O)[O-])c1`: the T/C was 113 % of control [survivor count not shown] under setting [3]; 103 % of control [survivor count not shown] (dose: 100.0 mg/kg/injection, schedule: Q04DX003 (ip), vehicle: saline); 103 % of control [survivor count not shown] under setting [4]; 97 % of control [survivor count not shown] (dose: 200.0 mg/kg/injection, schedule: Q04DX003 (ip), vehicle: saline); 102 % of control [survivor count not shown] under setting [5]; 108 % of control [survivor count not shown] (dose: 400.0 mg/kg/injection, schedule: Q04DX003 (ip), vehicle: saline).

In the case of `CCOP(=S)(OCC)SCCCl`, the T/C reads like this: (dose: 12.5 mg/kg/injection, schedule: Q04DX003 (ip), vehicle: saline with Tween-80) 100 % of control; (dose: 25.0 mg/kg/injection, schedule: Q04DX003 (ip), vehicle: saline with Tween-80) 104 % of control; (dose: 50.0 mg/kg/injection, schedule: Q04DX003 (ip), vehicle: saline with Tween-80) 103 % of control [5 of 6 alive]. Besides, the survivor count was 3 of 6 under setting [6], 0 of 6 under setting [7] and 0 of 6 under setting [8].

As to `O[C@H](CNCCCl)[C@@H](O)CNCCCl`, the T/C (dose: 0.35 mg/kg/injection, schedule: Q01DX Z (ip), vehicle: saline) was 110 % of control; the T/C (dose: 0.38 mg/kg/injection, schedule: Q01DX Z (ip), vehicle: saline) is 131 % of control; the T/C (dose: 0.54 mg/kg/injection, schedule: Q01DX Z (ip), vehicle: saline) is 134 % of control; the T/C (dose: 0.6 mg/kg/injection, schedule: Q01DX Z (ip), vehicle: methylcellulose (MC)) is 111 % of control; the T/C (dose: 0.75 mg/kg/injection, schedule: Q01DX Z (ip), vehicle: saline) was 125 % of control; the T/C (dose: 0.8 mg/kg/injection, schedule: Q01DX Z (ip), vehicle: saline) was 136 and 138 % of control. Moreover, the T/C (dose: 1.2 mg/kg/injection, schedule: Q01DX Z (ip), vehicle: methylcellulose (MC)) is 117 % of control; the T/C (dose: 1.2 mg/kg/injection, schedule: Q01DX Z (ip), vehicle: saline) is 138 and 154 % of control; the T/C (dose: 1.5 mg/kg/injection, schedule: Q01DX Z (ip), vehicle: saline) was 142 % of control; the T/C (dose: 2.3 mg/kg/injection, schedule: Q01DX Z (ip), vehicle: methylcellulose (MC)) is 128 % of control; the T/C (dose: 2.66 mg/kg/injection, schedule: Q01DX Z (ip), vehicle: saline) was 141 and 157 % of control; the T/C (dose: 3.0 mg/kg/injection, schedule: Q01DX Z (ip), vehicle: saline) is 153 % of control. The T/C runs as follows: (dose: 4.0 mg/kg/injection, schedule: Q01DX Z (ip), vehicle: saline) 148 and 186 % of control; (dose: 4.5 mg/kg/injection, schedule: Q01DX Z (ip), vehicle: methylcellulose (MC)) 140 % of control; (dose: 6.0 mg/kg/injection, schedule: Q01DX Z (ip), vehicle: saline) 152, 183, 194 % of control; under setting [1], 103 % of control [5 of 6 alive]; (dose: 9.0 mg/kg/injection, schedule: Q01DX Z (ip), vehicle: saline) 123, 188, 228 % of control; (dose: 13.0 mg/kg/injection, schedule: Q01DX Z (ip), vehicle: saline) 93 % of control. For the same compound, the T/C was 148 and 235 % of control (dose: 13.5 mg/kg/injection, schedule: Q01DX Z (ip), vehicle: saline); 166 % of control under setting [9]; 133 % of control (dose: 30.0 mg/kg/injection, schedule: Q01DX Z (ip), vehicle: saline); 100 % of control (dose: 45.0 mg/kg/injection, schedule: Q01DX Z (ip), vehicle: saline). In addition, the survivor count under setting [9] is given as 6 of 6.

Regarding `CC(C)SC(OC(=O)COc1ccccc1Cl)C(Cl)(Cl)Cl` (centres undefined), the T/C (dose: 25.0 mg/kg/injection, schedule: Q01DX009 (ip), vehicle: saline with Tween-80) was 103 % of control; the T/C (dose: 50.0 mg/kg/injection, schedule: Q01DX009 (ip), vehicle: saline with Tween-80) was 97 % of control; the T/C under setting [10] is 103 % of control; the T/C under setting [6] was 100 % of control; the T/C (dose: 200.0 mg/kg/injection, schedule: Q01DX009 (ip), vehicle: saline with Tween-80) was 95 % of control; the T/C under setting [7] was 93 % of control. The T/C (dose: 400.0 mg/kg/injection, schedule: Q01DX009 (ip), vehicle: saline with Tween-80) was 98 % of control and the T/C under setting [8] was 92 % of control. Moreover, the survivor count under setting [10] is reported as 6 of 6.
